# PubChem BioAssay AID1508597, Cure First, 2020
# Screen: 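Knock-downs altering ovarian cancer cell survival with or without PARP inhibitor rucaparib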 (primary screen)
# Cells: human ovarian carcinoma lines grown from tumours: OCI-P5x (papillary serous) and OCI-C5x (clear cell)
# Reagent: siRNA pool against human genes, 1.25 pmol siRNA per well
# Timing: 72 h or 96 h, depending on the cell culture
# Conditions: rucaparib 20 µM (about IC30) or vehicle, present until read-out
# Rucaparib or vehicle: Vehicle
# Cell line: OCI-C5x (clear cell)
# Measurement: 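Luminescent ATP-based viability assay read 72 or 96 h after transfection, depending on culture, given as normalised percent viability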
# Scale: viability, normalised: higher = more viable cells remaining
# Active means: 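a well counts as a hit if its normalised viability is under 80 percent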
# Meaning of the calls: active = viability under 80%; inactive = viability 80% or more
# This is a random part of the about 2,100 reagents, under one of the conditions tested. 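Calls flag viability under 80% in either arm, not effects specific to rucaparib; the reference for percent is not stated.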 Entries without a mark were called inactive. A reagent listed more than once was tested more than once; the source does not tell the runs apart. No sequences are given here. Not given: the 100% reference.
Target gene,technical replicate,"viability, normalised (%)"
SKIC2 (GeneID 6499),1,46.6 (active)
SKIC2 (GeneID 6499),2,39.4 (active)
SKIC2 (GeneID 6499),3,36.9 (active)
EPHB6 (GeneID 2051),1,64 (active)
EPHB6 (GeneID 2051),2,81.1
EPHB6 (GeneID 2051),3,51.3 (active)
ALPK1 (GeneID 80216),1,70.4 (active)
ALPK1 (GeneID 80216),1,61 (active)
ALPK1 (GeneID 80216),2,58.8 (active)
ALPK1 (GeneID 80216),2,53 (active)
ALPK1 (GeneID 80216),3,59.3 (active)
ALPK1 (GeneID 80216),3,63.3 (active)
WRN (GeneID 7486),1,61.8 (active)
WRN (GeneID 7486),1,73.2 (active)
WRN (GeneID 7486),2,53.6 (active)
WRN (GeneID 7486),2,78.7 (active)
WRN (GeneID 7486),3,52.1 (active)
WRN (GeneID 7486),3,85.8
EZH2 (GeneID 2146),1,60.6 (active)
EZH2 (GeneID 2146),2,49.8 (active)
EZH2 (GeneID 2146),3,40.8 (active)
SMG1 (GeneID 23049),1,52.8 (active)
SMG1 (GeneID 23049),2,51.9 (active)
SMG1 (GeneID 23049),3,50.9 (active)
NADK (GeneID 65220),1,49.8 (active)
NADK (GeneID 65220),2,51.3 (active)
NADK (GeneID 65220),3,45.2 (active)
PHF19 (GeneID 26147),1,39.2 (active)
PHF19 (GeneID 26147),2,39.8 (active)
PHF19 (GeneID 26147),3,37.2 (active)
LMTK2 (GeneID 22853),1,47.9 (active)
LMTK2 (GeneID 22853),2,50.4 (active)
LMTK2 (GeneID 22853),3,46.4 (active)
DMTF1 (GeneID 9988),1,46.2 (active)
DMTF1 (GeneID 9988),2,38.2 (active)
DMTF1 (GeneID 9988),3,32.7 (active)
ARFGEF2 (GeneID 10564),1,57 (active)
ARFGEF2 (GeneID 10564),2,56.5 (active)
ARFGEF2 (GeneID 10564),3,45.8 (active)
POLI (GeneID 11201),1,53.5 (active)
POLI (GeneID 11201),2,52.9 (active)
POLI (GeneID 11201),3,65.1 (active)
XPO5 (GeneID 57510),1,77.1 (active)
XPO5 (GeneID 57510),2,67.3 (active)
XPO5 (GeneID 57510),3,72.8 (active)
CSF1R (GeneID 1436),1,45.4 (active)
CSF1R (GeneID 1436),2,55.2 (active)
CSF1R (GeneID 1436),3,45.5 (active)
HM13 (GeneID 81502),1,45 (active)
HM13 (GeneID 81502),2,50.1 (active)
HM13 (GeneID 81502),3,58.6 (active)
PMS2 (GeneID 5395),1,101
PMS2 (GeneID 5395),2,110
PMS2 (GeneID 5395),3,114
CLDN18 (GeneID 51208),1,37.5 (active)
CLDN18 (GeneID 51208),2,56.1 (active)
CLDN18 (GeneID 51208),3,66.8 (active)
